Assay results from the supplement of paper PMC3334620.
Over roughly 33,000 sequences, “E-score (-0.5 to 0.5)” has its median near -0.0014; the highest 2% begin near 0.25. Some of the results follow.

These sequences were tested against T1, Cad1 (UniProt P24813) (assay: PBM E-score (8-mer binding enrichment) (E-score (-0.5 to 0.5)); higher = stronger / more preferred TF binding). Conditions: protein concentration: 100 nM; construct: GST-full length.
T1 sequence: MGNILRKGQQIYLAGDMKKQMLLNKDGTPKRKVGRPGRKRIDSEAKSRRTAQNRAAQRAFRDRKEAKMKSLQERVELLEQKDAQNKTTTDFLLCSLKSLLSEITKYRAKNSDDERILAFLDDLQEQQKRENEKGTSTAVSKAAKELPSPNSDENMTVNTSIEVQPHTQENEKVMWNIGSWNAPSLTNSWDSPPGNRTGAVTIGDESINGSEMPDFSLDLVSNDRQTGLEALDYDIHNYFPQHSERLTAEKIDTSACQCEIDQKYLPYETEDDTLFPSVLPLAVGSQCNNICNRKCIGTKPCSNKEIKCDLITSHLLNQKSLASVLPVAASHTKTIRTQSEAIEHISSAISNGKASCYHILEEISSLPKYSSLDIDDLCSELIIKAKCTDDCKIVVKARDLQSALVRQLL
Summary of the method: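 Yeast transcription factors carrying a GST tag, as full-length proteins or DNA-binding domains, were produced by PURExpress in vitro transcription/translation. About 100-200 nM protein was applied to universal all-10-mer Agilent arrays, double-stranded by primer extension on fresh or once-stripped slides. Bound protein was detected with fluorescent anti-GST, and scans were normalised with masliner. The Universal PBM Analysis Suite gave each ungapped eight-base word, pooled with its reverse complement, an E-score, a modified Wilcoxon-Mann-Whitney statistic.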

Sequence	PBM E-score
ATCACTGA	-0.0215
ATCGTCAG	0.0634
GAAATATA	0.169
CAAGAGAG	-0.186
CAGTCAGG	0.0571
CGCCTGTC	-0.0831
AACCACAG	-0.0849
GTCGAGGA	-0.167
ACCATGCC	0.0435
TAGATACA	-0.0438
AAGGCGTC	-0.0396
ACGAAATA	0.201
GCCGTACC	-0.0698
CAGGCCGG	-0.205
CATGGGAC	-0.0807
CGACTTTC	-0.101
GCACAGTA	0.0893
AACGGTCA	-0.0368
GCAGGGCC	-0.122
TAAAGCTA	-0.186
CGCCGCTA	-0.0235
AGTGCCCA	0.0563
AGTCCTTG	-0.0247
GATGGCAA	0.093
GGACGGAC	-0.0841

4 records picked at random from the list so far, as already listed:
Sequence	PBM E-score
CAAGAGAG	-0.186
ACGAAATA	0.201
CAGTCAGG	0.0571
ATCGTCAG	0.0634

Carrying on.

Sequence	PBM E-score
AATACCGG	0.103
CCGAGACG	0.0676
CGCAAGAA	0.244
AACTGCCG	0.152
ATCGTATC	0.0772
GCAAGAAA	-0.0319
AGCATACG	-0.0266
ATCCCACG	-0.121
CTTAGGTC	-0.172
AGCGCATA	0.0834
AACTGCCA	-0.134
CGCTCAGA	-0.0504
CCTTCGGA	-0.00486
ACGTCATA	0.15
CCTATAGC	-0.0832
ACCATCAA	0.0458
CCGTCAGC	0.0939
CTAATATC	0.247
GCCAGATA	0.0165
CTCACTAA	-0.00114
GGTGATAA	-0.0826
AGGTAAAT	-0.00978
CGGGGCTC	-0.302
CTAAACAA	-0.178
ATCCCCCG	-0.313

An excerpt of these results, field by field.
ACGTCATA
  PBM E-score = 0.15
CTAATATC
  PBM E-score = 0.247

Following part.

Sequence	PBM E-score
ACCAACCT	0.0932
CGAGGGGA	-0.237
CGTTAATC	0.104
GCTATTAC	0.098
ACAGTCTA	-0.0844
CCACTTGA	-0.0496
TAGCACTA	0.0501
GGGAATAC	0.0313
GGATGCCA	-0.14
GGTCAGTA	-0.112
CCGAGACC	-0.05
GTACTATA	0.183
TTAATCAA	0.199
AACTTACG	-0.0399
CAGGAAAC	0.195
CAAAAGCA	0.0445
GTGAAAAC	0.132
AGCGAAGC	-0.136
AAGTTGAC	0.0314
CATCACCC	0.05
ACAGCGCT	0.155
GGAGCAAC	-0.0625
GGGAAACC	0.167
AAATCCGG	0.148
GAACCGAA	0.162

Sequence	PBM E-score
ACGGGGAA	-0.0935
AAACCAGA	-0.0763
ACAGATGA	-0.00923
AACACCCT	-0.0954
GCGTGGCC	-0.0913
ATTGGTAA	0.257
AGCGATGC	-0.25
CTCGAGCA	0.115
CGGCCTTA	0.0808
ACAAGTGC	-0.0973
AGAATCAT	-0.0772
CTTCATCC	-0.0685
ACACATAC	0.0668
AAAGTGGT	0.00758
ATCAAGCC	-0.0325
TCATAAAA	0.0335
CCGCGGGC	0.0272
CTAAATGA	-0.0381
AAGCCCTC	-0.125
ACTTGAAG	-0.0331
ATTCATCG	0.0965
CGTGCCGC	0.0565
ACACTGAG	-0.0275
ATCTCTGA	-0.103
CCTAACCG	-0.199

In another format: entries from further up.
Sequence | PBM E-score
AGAATCAT | -0.0772
CTTCATCC | -0.0685
ACACATAC | 0.0668
AAAGTGGT | 0.00758
ATCAAGCC | -0.0325
TCATAAAA | 0.0335

(listing goes on)

Sequence	PBM E-score
CAAAACGG	0.0792
GCTCTTCC	-0.288
AAACCGAC	0.0769
AATCCGAT	0.25
CAGAAACA	0.0904
GCAAACTA	0.0959
ACACCTAA	0.0123
AGCGGTTC	-0.0532
ACGGAATG	-0.0518
GGACTGAA	0.0584
CCAGTGTC	-0.0693
TATACTAA	0.107
ATATTCGG	0.105
ATTTACGC	0.0764
GGCGGCCA	-0.00265
GGCGCCAA	0.184
CGTCAGTC	-0.0681
AAGTTTCA	0.0901
CGCACACA	0.147
GCTTGCTA	-0.164
AGTTGAGA	-0.0203
CTGATAAA	0.221
CCCGACCC	0.0469
ACTATATA	0.251
ACCGAGTC	-0.128

Sequence	PBM E-score
ACCGACAG	-0.0239
CATGCTAC	-0.0487
AGGCCCAG	-0.257
GATAGCCA	-0.048
AGACGATC	-0.248
ACTGGGAC	-0.157
CCGGAGTA	-0.012
CTGCGTTC	0.209
CATACCAA	0.118
GCACAGAA	0.136
GCACAGCA	0.092
AACAACGT	-0.0218
GGACCGTA	-0.0371
ATCGTCTG	0.014
CCCGCGGG	0.0407
ACGTGCCA	-0.102
CTGTGAAA	0.223
ATAGTTCG	0.0707
CAGGCTAG	-0.315
ACGCACGA	0.136
CGTGTCAG	0.159
AAATTCCT	-0.0708
GAAACTAC	0.0571
CCTCCAGC	-0.212
ATATACAT	0.203

Sequence	PBM E-score
GAACACTA	0.0513
ATTGTTTA	0.105
AGGTATTG	-0.00837
ACGACCTC	0.174
CATTGTAG	-0.177
CTTGTTCC	0.0689
TAACAGTA	0.0391
CGCTACGA	0.0101
CGTGCCCC	-0.194
CTCGAACC	-0.0891
CACAGGAG	0.0278
CTGTGTGC	0.0184
GCGAGCTA	-0.0885
AGAGTAAA	0.0241
ACAGTCAA	-0.0099
ACGTTACT	0.126
CATTGTCG	0.0864
TCAAAGCA	0.0625
AACACAAA	0.0737
ATGCGTCC	0.0398
ATAGTAAC	0.104
GGACGCAA	-0.0312
GCGTAGAC	-0.188
CTGTTACC	-0.0993
TATTCCAA	-0.0108

Sequence	PBM E-score
TCGACCAA	-0.0605
GTGGCGTA	-0.043
CATTCTTA	0.0549
AGGAACTG	-0.0975
ACCGCCAA	0.0134
ACCGGCGC	0.0124
ATGTTGTG	0.161
GACGAGCA	0.105
ACGACAGA	-0.0321
GTGGAATA	0.0376
ACTCCGCG	0.154
CATGCTGG	0.0485
CTCTGATC	-0.105
ATCCAAGA	-0.0169
CGCCAAAA	0.249
ACTTCGAC	-0.0628
TGAGATAA	0.144
ACCGGGAG	-0.293
ATGTCTCC	0.0278
TAACACTA	0.265
ACCAAAAC	-0.0311
GAATATCA	0.00591
CGTGAAGA	0.0475
CTGGACGC	0.069
GGACCGGA	-0.00547

Sequence	PBM E-score
AGGACCGG	-0.292
CAGATCCC	-0.0463
ATAAGATC	0.0938
CACAACCG	0.0424
GGCAGCCA	0.0785
CCTTCTTA	-0.116
GCTCTAGA	-0.148
ATGGACGA	0.0504
CTACTTGA	-0.0186
ATGTGGAC	0.0413
ACTACCCA	0.0426
CCTGCGGC	-0.206
AAACCACC	-0.138
AGAAGATC	-0.0448
CCCCGGGA	-0.157
CCAGTGCA	-0.101
CCGAGCTC	0.0766
AGCAACAT	-0.0115
GGACTAAC	-0.101
CAGTCGAG	-0.191
ACATAAAT	0.207
AGGTCATA	-0.0143
GCCCCACC	-0.024
CAATCCGA	0.0394
AGTGGCCC	-0.0492

Sequence	PBM E-score
AGCCTAAC	-0.0147
AAAGAATG	0.14
GACCTGGA	-0.194
AACCTCCT	-0.0565
CCGTGCTC	0.0988
CCTCTGAA	-0.227
GGTATGAC	0.00686
ATATGTTC	0.101
CCTCGTCC	-0.0777
TTACAAAA	0.242
ATAATCAC	0.238
AAGCCGAT	0.085
GGCCCAGA	-0.232
ACCCGTCA	-0.216
AGTGCAAA	0.228
CACGCTCG	0.038
CTTTGTTA	0.222
AGCGCCCC	-0.415
CTTGAGGA	-0.0583
ATTATGAC	0.0787
CGGGACCC	-0.273
AATGGGAC	-0.146
CACGATCG	0.0389
CAACATAA	0.255
CAAATCGG	0.0936

Sequence	PBM E-score
GTGAGCAC	-0.0607
CAGGTGCA	-0.0586
CTTTCAAC	-0.00761
AACCTTGC	-0.101
CCTCAGGC	-0.0549
ACCCTTAC	0.0397
CGATAAAA	0.205
AAGACCGG	-0.187
GTCGTCCA	-0.0199
ACATATGA	0.145
CGGACTCC	0.0562
AGGGTTAG	-0.153
GGGCGACC	-0.0554
GCGGAACA	0.117
CAGCTAGG	-0.203
CACGTCTG	0.134
ACGTCACA	0.0772
CGATATAG	0.1
CGGTGAAC	0.0875
CAACTGCA	0.086
AAATACAC	0.151
CTCTTCAG	-0.148
AGGCGCTG	0.027
ATGTTCAC	0.0431
CCGACATC	0.0286

Sequence	PBM E-score
GCCGTTTA	0.0175
CCTACGGA	-0.328
CGTTTGTA	0.0518
GAAGTGGC	-0.143
ATTCCAGA	0.0307
CATGGGGA	-0.19
GATGTCAA	-0.115
TATCCGCA	0.149
GAGAATCA	-0.0529
CTTTTGAC	-0.196
AGAACAGA	0.00299
CGACCAAG	-0.114
TGGAAAAA	-0.0449
AGTACTAG	0.0451
CATGCTCC	-0.194
AGTGCGGG	0.00669
AGGGAATA	0.108
TATATATA	0.377
ATGCATGG	0.224
ACGTACGC	-0.0765
GTAAGTTA	0.0778
ATCTGGTA	0.139
CAAGCATC	-0.0225
AGACCTCC	-0.33
CTCGTCTC	0.0257

Sequence	PBM E-score
ACAAGGAC	-0.0567
CGTTATTA	0.202
GGAAAACC	-0.112
GCCCGTCA	-0.264
CTACATTC	-0.163
TGCTTTAA	0.034
GACGTTCA	-0.0546
GCGGCCCA	-0.154
ATTGGGAA	0.104
CTATTCCC	-0.159
GAGCCCTA	-0.254
ATCGTTCG	0.0847
CACGAATC	0.205
CGTATACA	0.0135
CCCTTACA	0.0712
CCGAGTGC	0.089
AATCCTGA	0.142
CATGTTCA	-0.0873
CATCCATC	-0.124
GCGTCGAC	0.252
GTTCTTGA	0.0467
TAGAGCCA	-0.227
CATGAGTC	0.12
AATGAATC	0.0171
CATTTTTA	-0.0201

Sequence	PBM E-score
CACTAATC	0.262
AGCTGCTA	0.148
GCTACGAC	0.0331
CACTTCTG	-0.0379
ACCGGCAG	-0.194
AACGACTC	-0.174
CAGCGCGC	0.203
GCTACACA	-0.108
CTGGAAAC	-0.00171
AGATGATA	0.137
AACCTAAA	0.176
CATTGCCG	0.0606
AGTAGACA	-0.117
CCCGTCAA	-0.194
CACACTTC	0.0239
AGGTACGA	-0.2
GAAGCCAC	-0.0422
GAAGCAGA	-0.0537
AAACAGCT	-0.0841
